The test system of the assay is Escherichia coli BW25113. As to the kind of experiment: plate-normalized OD600 growth (mean of duplicates) (OD600 (normalized)); higher = more growth (less inhibition). Particulars: 10 µM. On the procedure: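 E. coli BW25113 in LB (100 µl, 96-well, no shaking) was exposed to 10 µM of each compound (here the ChemBridge subset of a ~30,000-member library) and grown at 37°C for 24 h or 15°C for 48 h, in duplicate. Growth was read as OD600 and the duplicate ODs were normalized across screening plates to correct plate-to-plate variation.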

Whole data set: some 1,600 compounds, median “plate-normalized OD600 growth (mean of duplicates)” near 0.31, cut for the lowest 2% near 0.23. The list shows a part of the results.

`COC1C2C3CC4C5C3C1C5C(O)(c1ccccc1)C42` (stereo not given): the “plate-normalized OD600 growth” value (temperature: 15°C, 48 h) came to 0.247 and the “plate-normalized OD600 growth” value (temperature: 37°C, 24 h) amounted to 0.611.
As to `O=C(CSC1CC(=O)N(c2ccc(F)cc2)C1=O)Nc1ccc(Cl)cc1` (stereo not given), the “plate-normalized OD600 growth” value is 0.25 (temperature: 15°C, 48 h) and 0.618 (temperature: 37°C, 24 h).
In the same order, the values of `CCCC(=O)N(c1ccccc1)C1CC(C)Nc2ccccc21` (stereo not given) are 0.228 and 0.628.
In the same order, the values of `N#CC1=C(N)SC(N)=C(C#N)C1c1cccnc1` are 0.26 and 0.62.
For `Cc1ccccc1C(=O)N(C)Cc1ccccc1`, the “plate-normalized OD600 growth” value runs as follows: (temperature: 15°C, 48 h) 0.256; (temperature: 37°C, 24 h) 0.623.
For the molecule `c1ccc(N2CCN(C3CC4CCC3C4)CC2)cc1` (stereo not given), the “plate-normalized OD600 growth” value worked out at 0.256 (temperature: 15°C, 48 h) and 0.618 (temperature: 37°C, 24 h).
Take `COc1cc(C(=O)N2CCCCC2)cc(OC)c1OC`: the “plate-normalized OD600 growth” value (temperature: 15°C, 48 h) amounted to 0.254 and the “plate-normalized OD600 growth” value (temperature: 37°C, 24 h) came out at 0.618.
With `COc1ccccc1N1CCN(CCC(=O)NN)CC1`, the “plate-normalized OD600 growth” value runs as follows: (temperature: 15°C, 48 h) 0.254; (temperature: 37°C, 24 h) 0.611.
On to `NC(=O)CCC(=O)NC12CC3CC(CC(C3)C1)C2`, for which the “plate-normalized OD600 growth” value reads like this: (temperature: 15°C, 48 h) 0.227; (temperature: 37°C, 24 h) 0.599.
Turning to `O=C(Nc1ccccc1F)C1CC(=O)N(c2ccc(Br)cc2)C1` (stereo not given), the “plate-normalized OD600 growth” value (temperature: 15°C, 48 h) was determined as 0.249 and the “plate-normalized OD600 growth” value (temperature: 37°C, 24 h) was 0.609.
For `COc1ccc2nccnc2c1[N+](=O)[O-]`, the “plate-normalized OD600 growth” value reads like this: (temperature: 15°C, 48 h) 0.25; (temperature: 37°C, 24 h) 0.617.
For the molecule `C1CCN(CCCNC2C3CC4CC(C3)CC2C4)C1` (stereo not given), the “plate-normalized OD600 growth” value runs as follows: (temperature: 15°C, 48 h) 0.241; (temperature: 37°C, 24 h) 0.643.
In the same order, the values of `O=C1c2ccccc2C(=O)N1c1nccs1` are 0.239 and 0.622.
For `COc1ccc2nc3c(nc2c1)C(=O)c1ccccc1-3`, the “plate-normalized OD600 growth” value came out at 0.234 (temperature: 15°C, 48 h) and 0.611 (temperature: 37°C, 24 h).
As for `COc1ccc(CNc2ccccc2)cc1C`, the “plate-normalized OD600 growth” value was determined as 0.246 (temperature: 15°C, 48 h) and 0.615 (temperature: 37°C, 24 h).
For the molecule `NNC(=O)Nc1ccc(Cc2ccc(NC(=O)NN)cc2)cc1`, the “plate-normalized OD600 growth” value is, setting by setting: (temperature: 15°C, 48 h) 0.266; (temperature: 37°C, 24 h) 0.638.
As for `Cc1cccc(CSc2nc(C)cc(=O)[nH]2)c1`, the “plate-normalized OD600 growth” value reads like this: (temperature: 15°C, 48 h) 0.251; (temperature: 37°C, 24 h) 0.617.
As to `O=C(O)CN(CC(=O)O)c1ccccc1`, the “plate-normalized OD600 growth” value (temperature: 15°C, 48 h) turned out to be 0.255 and the “plate-normalized OD600 growth” value (temperature: 37°C, 24 h) was found to be 0.651.
As for `O=C(O)c1cccc(NC(=O)c2ccc([N+](=O)[O-])cc2)c1`, the “plate-normalized OD600 growth” value worked out at 0.261 (temperature: 15°C, 48 h) and 0.617 (temperature: 37°C, 24 h).
In the case of `CC1(C)CC(=O)C2=C(C1)Nc1ccccc1NC2c1ccccc1F` (stereo not given), the “plate-normalized OD600 growth” value (temperature: 15°C, 48 h) came out at 0.25 and the “plate-normalized OD600 growth” value (temperature: 37°C, 24 h) was found to be 0.618.
As to `CCCN1CCC(NCCc2ccccc2OC)CC1`, the “plate-normalized OD600 growth” value worked out at 0.252 (temperature: 15°C, 48 h) and 0.619 (temperature: 37°C, 24 h).
In the case of `CC(=O)N1CCC(NC2CCCCCC2)CC1`, the “plate-normalized OD600 growth” value by setting is: (temperature: 15°C, 48 h) 0.269; (temperature: 37°C, 24 h) 0.62.
Take `COc1cc2c(cc1OC)CN(Cc1ccccn1)CC2`: the “plate-normalized OD600 growth” value stood at 0.28 (temperature: 15°C, 48 h) and 0.644 (temperature: 37°C, 24 h).
In the same order, the values of `Cc1ccc(NC(=O)c2ccc(Br)cc2)c([N+](=O)[O-])c1` are 0.25 and 0.593.
Consider `O=C(Cn1cnc2ccccc21)c1ccc(Br)cc1`, for which the “plate-normalized OD600 growth” value reads like this: (temperature: 15°C, 48 h) 0.238; (temperature: 37°C, 24 h) 0.623.
For `NC(=O)N1CCN(C(=O)c2ccco2)CC1`, the “plate-normalized OD600 growth” value was 0.255 (temperature: 15°C, 48 h) and 0.633 (temperature: 37°C, 24 h).
For `NC(N)=Nc1nc2ccccc2c(=O)[nH]1`, the “plate-normalized OD600 growth” value (temperature: 15°C, 48 h) stood at 0.254 and the “plate-normalized OD600 growth” value (temperature: 37°C, 24 h) was 0.622.
In the same order, the values of `Cc1ccsc1CN1CCN(c2ccc([N+](=O)[O-])cc2)CC1` are 0.256 and 0.634.
With `COc1ccccc1/C=C/CN1CCN(CCOCCO)CC1`, the “plate-normalized OD600 growth” value came to 0.267 (temperature: 15°C, 48 h) and 0.661 (temperature: 37°C, 24 h).
On to `CC(C)c1c(C#N)c(N)nc(SCC(=O)c2ccc(Cl)c(Cl)c2)c1C#N`, for which the “plate-normalized OD600 growth” value runs as follows: (temperature: 15°C, 48 h) 0.256; (temperature: 37°C, 24 h) 0.63.
Consider `CC(=O)Nc1ccc(S(=O)(=O)N2CCN(C)CC2)cc1`, for which the “plate-normalized OD600 growth” value by setting is: (temperature: 15°C, 48 h) 0.258; (temperature: 37°C, 24 h) 0.646.
For `C/C(=C\c1ccccc1)CN1CCN(C)CC1`, the “plate-normalized OD600 growth” value (temperature: 15°C, 48 h) was determined as 0.251 and the “plate-normalized OD600 growth” value (temperature: 37°C, 24 h) came out at 0.652.
In the case of `COc1ccc(N2C(=O)CC(N3CCN(c4ccccn4)CC3)C2=O)cc1` (stereo not given), the “plate-normalized OD600 growth” value is 0.24 (temperature: 15°C, 48 h) and 0.651 (temperature: 37°C, 24 h).
Consider `CC1CCN(C2CC(=O)N(c3ccccc3)C2=O)CC1` (stereo not given), for which the “plate-normalized OD600 growth” value by setting is: (temperature: 15°C, 48 h) 0.23; (temperature: 37°C, 24 h) 0.614.
Take `N#CSCCCOc1ccccc1Br`: the “plate-normalized OD600 growth” value is 0.242 (temperature: 15°C, 48 h) and 0.595 (temperature: 37°C, 24 h).

Values taken from the supplement of paper PMC4371806.
